Data reported in patent US5004780A, “Cyclic monoperoxyketal” (priority 1988, dated 1991).
Some entries share one result that the patent states for a list of compounds.

Assay: Thermal decomposition of 1-methoxy-1-(1,1-dimethylethylperoxy)cyclohexane at 100° C. in n-hexane, n-dodecane or n-hexadecane
Type: physicochemical
Settings: in words
Procedure: A 0.05 mol/l cumene solution of each of the cyclic monoperoxyketals of the present invention produced in Examples 1-6 and the cyclic bisperoxyketals produced in the same manner as described in Examples 1-6 was prepared. A given amount of each sample solution was sampled into a glass ampule, and the sample solution was deaerated by a freezing method, and then the ampule was sealed under vacuum. Then, the ampules were put in a thermostat kept at 100° C., and taken out from the thermostate every predetermined times, and the concentration of peroxyketal was measured by a gas chromatography or liquid chromatography. The decomposition rate constant and half-life period of a sample peroxyketal were calculated from the disappearing rate of the peroxyketal. The obtained results are shown in the following Table 1 as Examples 6-12 and Comparative examples 1-6.
Thermal decomposition of 1-methoxy-1-(1,1-dimethylethylperoxy)cyclohexane at 100° C. was carried out in the same manner as described in Example 7, except that n-hexane, n-dodecane or n-hexadecane was used as a solvent in place of cumene, and the thermal decomposition rate constant and half-life period of the cyclic monoperoxyketal in these solvents were measured.

COC1(OOC(C)(C)C)CCCCC1 [Example 7, 1-methoxy-1-(1,1-dimethylethylperoxy)cyclohexane]
decomposition rate versus viscosity of solvent: the decomposition rate is decreased with the increase of the viscosity of solvent
